Compound in the assay: Cc1cc(ccc1-c1ccccc1)C(=O)N1CCCN(CC1)C(=O)CCl [compound 10]
Kind of assay: probe-labelled cysteine peptide fold change vs DMSO (competition) (log2 fold change); higher = less target engagement (more negative = stronger competition). The note with it: THP-1, incubation time: 4 h.

Chains of the proteins cited; added tags and fusions are not shown. Lines headed by an entry give the natural chain unless they say otherwise; changes in a name come on top.
UniProt Q9P2J5: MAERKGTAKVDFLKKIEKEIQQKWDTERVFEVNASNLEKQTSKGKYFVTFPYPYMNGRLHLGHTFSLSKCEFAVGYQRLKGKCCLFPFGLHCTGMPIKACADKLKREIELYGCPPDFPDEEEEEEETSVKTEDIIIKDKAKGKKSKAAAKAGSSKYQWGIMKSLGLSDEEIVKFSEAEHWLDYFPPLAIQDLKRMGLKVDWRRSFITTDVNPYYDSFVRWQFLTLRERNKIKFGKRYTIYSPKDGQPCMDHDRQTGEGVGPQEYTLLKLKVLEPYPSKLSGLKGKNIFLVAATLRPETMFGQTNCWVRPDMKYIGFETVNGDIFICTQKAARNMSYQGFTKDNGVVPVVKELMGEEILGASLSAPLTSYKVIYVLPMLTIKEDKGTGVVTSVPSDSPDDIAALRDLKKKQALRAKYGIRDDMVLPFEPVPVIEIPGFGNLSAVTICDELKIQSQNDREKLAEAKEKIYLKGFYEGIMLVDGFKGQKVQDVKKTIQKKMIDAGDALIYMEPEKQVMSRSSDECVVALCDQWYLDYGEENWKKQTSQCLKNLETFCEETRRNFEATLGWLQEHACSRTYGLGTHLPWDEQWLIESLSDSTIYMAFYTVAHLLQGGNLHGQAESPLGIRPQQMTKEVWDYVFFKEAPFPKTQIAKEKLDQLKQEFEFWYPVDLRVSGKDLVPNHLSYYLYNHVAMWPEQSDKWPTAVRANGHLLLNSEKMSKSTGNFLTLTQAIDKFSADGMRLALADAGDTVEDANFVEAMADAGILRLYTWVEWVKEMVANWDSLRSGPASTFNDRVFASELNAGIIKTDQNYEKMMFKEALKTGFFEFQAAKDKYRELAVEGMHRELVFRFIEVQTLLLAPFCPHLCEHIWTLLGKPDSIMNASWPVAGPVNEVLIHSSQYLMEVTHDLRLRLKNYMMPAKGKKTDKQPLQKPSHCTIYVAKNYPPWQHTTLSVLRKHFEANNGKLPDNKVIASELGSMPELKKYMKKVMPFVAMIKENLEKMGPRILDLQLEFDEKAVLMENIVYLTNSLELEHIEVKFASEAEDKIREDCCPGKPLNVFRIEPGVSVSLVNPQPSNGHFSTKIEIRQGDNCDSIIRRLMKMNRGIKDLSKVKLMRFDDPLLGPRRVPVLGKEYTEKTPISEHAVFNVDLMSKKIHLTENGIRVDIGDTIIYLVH
UniProt Q07866: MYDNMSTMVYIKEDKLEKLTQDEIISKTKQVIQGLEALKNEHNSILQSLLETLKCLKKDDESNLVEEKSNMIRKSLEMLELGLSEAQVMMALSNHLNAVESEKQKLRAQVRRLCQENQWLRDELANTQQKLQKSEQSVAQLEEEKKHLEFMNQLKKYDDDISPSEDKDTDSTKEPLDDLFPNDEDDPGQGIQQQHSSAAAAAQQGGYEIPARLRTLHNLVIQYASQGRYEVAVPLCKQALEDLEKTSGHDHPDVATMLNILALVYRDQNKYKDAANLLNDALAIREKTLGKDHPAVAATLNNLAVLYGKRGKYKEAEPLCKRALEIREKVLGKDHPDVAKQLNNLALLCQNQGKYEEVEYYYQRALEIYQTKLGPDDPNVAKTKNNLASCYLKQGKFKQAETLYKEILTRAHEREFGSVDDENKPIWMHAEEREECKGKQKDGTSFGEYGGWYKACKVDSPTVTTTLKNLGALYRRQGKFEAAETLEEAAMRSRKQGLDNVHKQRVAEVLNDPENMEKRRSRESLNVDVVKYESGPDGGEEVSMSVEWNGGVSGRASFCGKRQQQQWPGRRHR
UniProt O43813, whole entry, looked up: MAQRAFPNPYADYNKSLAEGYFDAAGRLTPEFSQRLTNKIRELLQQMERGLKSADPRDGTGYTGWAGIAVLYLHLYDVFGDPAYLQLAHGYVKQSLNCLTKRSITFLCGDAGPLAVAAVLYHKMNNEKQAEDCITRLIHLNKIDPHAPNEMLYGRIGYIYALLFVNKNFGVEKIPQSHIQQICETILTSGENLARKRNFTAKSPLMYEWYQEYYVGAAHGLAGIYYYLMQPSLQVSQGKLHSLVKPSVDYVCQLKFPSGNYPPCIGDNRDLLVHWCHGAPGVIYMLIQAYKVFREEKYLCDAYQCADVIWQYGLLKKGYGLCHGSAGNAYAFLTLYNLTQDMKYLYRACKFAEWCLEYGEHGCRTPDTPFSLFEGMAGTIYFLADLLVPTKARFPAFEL
UniProt Q96EM0: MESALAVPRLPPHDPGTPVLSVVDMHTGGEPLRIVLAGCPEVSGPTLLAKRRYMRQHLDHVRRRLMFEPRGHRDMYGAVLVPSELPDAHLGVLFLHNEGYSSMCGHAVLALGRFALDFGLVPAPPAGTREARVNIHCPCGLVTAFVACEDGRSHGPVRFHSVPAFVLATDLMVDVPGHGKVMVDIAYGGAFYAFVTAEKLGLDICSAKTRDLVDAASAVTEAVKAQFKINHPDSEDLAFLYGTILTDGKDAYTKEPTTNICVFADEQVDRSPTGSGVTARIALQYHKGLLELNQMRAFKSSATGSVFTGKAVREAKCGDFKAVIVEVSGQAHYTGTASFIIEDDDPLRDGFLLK
UniProt O00629, whole entry, looked up: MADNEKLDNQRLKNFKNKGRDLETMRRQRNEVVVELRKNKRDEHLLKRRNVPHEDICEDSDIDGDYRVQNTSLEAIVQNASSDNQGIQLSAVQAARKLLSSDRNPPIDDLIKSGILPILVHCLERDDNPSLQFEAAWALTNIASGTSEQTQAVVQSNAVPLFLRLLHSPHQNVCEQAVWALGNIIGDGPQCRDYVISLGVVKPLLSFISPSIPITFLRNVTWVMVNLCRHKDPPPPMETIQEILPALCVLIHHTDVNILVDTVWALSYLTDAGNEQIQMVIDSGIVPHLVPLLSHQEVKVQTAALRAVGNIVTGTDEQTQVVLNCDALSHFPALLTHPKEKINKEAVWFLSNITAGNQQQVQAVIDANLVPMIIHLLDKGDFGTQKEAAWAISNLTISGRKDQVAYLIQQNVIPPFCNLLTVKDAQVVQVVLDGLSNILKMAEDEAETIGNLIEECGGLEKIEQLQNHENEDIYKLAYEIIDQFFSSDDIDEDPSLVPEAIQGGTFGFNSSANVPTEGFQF
UniProt Q8IXQ5, whole entry, looked up: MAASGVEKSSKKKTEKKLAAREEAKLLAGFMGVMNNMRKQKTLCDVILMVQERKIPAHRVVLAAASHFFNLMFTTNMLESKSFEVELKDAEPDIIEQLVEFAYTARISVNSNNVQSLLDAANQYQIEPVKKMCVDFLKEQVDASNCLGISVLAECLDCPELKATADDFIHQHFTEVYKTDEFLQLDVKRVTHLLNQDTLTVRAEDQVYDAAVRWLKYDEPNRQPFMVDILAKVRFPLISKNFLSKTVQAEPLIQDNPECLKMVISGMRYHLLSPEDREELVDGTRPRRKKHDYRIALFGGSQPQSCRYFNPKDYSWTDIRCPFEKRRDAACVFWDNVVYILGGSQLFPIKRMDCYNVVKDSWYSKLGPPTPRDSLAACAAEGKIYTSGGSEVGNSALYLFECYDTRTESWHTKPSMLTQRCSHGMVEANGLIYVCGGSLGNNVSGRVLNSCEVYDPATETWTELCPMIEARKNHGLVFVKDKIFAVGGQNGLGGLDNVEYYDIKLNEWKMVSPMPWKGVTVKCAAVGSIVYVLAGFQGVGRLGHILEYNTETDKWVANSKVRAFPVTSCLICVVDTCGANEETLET
UniProt O95239: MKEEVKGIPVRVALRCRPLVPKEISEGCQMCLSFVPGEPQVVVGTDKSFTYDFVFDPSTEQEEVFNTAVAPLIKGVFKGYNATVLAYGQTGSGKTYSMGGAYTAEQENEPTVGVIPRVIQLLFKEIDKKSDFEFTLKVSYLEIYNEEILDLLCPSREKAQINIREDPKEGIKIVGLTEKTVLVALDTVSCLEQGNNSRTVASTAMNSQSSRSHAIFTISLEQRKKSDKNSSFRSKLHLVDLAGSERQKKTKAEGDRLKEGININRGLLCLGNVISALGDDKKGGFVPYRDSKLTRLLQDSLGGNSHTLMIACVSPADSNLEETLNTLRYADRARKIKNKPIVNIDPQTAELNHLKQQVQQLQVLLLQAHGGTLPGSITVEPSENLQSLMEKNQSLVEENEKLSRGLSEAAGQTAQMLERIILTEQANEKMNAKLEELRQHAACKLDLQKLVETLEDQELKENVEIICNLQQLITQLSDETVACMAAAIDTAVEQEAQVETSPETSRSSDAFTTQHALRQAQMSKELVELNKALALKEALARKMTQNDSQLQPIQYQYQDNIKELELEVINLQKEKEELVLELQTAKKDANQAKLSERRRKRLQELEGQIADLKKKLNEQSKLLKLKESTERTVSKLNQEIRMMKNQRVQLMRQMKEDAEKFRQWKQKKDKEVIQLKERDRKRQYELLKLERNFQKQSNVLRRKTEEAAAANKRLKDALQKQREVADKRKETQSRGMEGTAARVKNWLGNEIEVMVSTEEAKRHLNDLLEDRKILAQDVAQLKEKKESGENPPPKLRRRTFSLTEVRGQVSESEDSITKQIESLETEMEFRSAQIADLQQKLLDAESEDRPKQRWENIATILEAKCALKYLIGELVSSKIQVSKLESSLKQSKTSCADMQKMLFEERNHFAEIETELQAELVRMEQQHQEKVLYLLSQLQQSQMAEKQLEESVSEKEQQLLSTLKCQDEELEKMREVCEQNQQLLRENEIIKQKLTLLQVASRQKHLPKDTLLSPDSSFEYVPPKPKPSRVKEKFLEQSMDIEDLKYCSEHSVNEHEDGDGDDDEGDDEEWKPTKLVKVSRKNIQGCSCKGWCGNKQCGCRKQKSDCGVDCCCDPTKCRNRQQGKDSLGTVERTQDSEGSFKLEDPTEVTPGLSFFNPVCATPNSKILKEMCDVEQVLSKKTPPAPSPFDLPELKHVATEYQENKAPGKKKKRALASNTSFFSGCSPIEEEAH
UniProt Q14974, whole entry, looked up: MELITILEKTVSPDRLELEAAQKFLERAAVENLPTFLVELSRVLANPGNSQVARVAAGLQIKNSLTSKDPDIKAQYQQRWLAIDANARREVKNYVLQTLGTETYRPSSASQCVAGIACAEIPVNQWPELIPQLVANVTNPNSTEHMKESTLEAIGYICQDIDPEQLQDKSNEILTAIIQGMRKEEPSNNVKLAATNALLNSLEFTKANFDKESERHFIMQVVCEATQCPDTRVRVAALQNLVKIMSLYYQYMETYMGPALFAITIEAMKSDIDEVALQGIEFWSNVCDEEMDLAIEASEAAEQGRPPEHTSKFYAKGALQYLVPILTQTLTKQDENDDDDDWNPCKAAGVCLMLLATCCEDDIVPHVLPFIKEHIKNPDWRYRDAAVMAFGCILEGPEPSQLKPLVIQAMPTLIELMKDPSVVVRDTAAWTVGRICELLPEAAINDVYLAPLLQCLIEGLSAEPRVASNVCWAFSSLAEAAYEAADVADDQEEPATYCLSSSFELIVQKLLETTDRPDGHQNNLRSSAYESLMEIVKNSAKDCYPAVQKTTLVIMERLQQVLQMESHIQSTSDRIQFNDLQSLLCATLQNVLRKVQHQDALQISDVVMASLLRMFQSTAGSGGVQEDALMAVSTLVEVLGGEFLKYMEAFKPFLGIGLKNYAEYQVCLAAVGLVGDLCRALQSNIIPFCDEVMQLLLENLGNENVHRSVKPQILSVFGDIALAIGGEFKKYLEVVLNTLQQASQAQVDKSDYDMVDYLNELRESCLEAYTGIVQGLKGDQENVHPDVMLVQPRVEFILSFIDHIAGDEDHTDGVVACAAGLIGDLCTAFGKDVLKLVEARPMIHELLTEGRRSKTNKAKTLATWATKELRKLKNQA
UniProt Q53HC5: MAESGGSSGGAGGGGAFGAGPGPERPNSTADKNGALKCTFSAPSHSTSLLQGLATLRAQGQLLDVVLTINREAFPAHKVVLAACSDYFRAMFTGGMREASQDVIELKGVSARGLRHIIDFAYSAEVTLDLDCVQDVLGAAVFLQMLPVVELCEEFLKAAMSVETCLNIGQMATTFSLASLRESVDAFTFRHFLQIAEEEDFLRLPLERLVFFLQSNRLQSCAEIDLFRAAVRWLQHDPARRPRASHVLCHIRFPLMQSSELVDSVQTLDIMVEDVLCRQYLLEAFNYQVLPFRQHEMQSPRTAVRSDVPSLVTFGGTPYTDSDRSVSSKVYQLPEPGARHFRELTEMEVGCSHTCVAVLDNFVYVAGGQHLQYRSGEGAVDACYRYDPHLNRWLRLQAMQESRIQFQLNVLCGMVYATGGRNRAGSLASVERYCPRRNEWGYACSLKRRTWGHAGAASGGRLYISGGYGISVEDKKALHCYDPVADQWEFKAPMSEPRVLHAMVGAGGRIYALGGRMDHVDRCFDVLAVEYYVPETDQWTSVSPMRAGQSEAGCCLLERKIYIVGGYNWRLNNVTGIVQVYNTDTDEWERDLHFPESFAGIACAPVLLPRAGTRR

This is one part of the list.
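Note: competitive profiling in live THP-1 cells: cysteine peptides tagged with an iodoacetamide desthiobiotin (IA-DTB) probe, intensity after compound treatment relative to DMSO-treated cells.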

Consider “LARP7_Q4G0J3_493_DTLAAISEVLYVDLLEGDTECHAR (UniProt Q4G0J3)”, for which the “probe-labelled cysteine peptide fold change” value reads like this: (10 µM) 0.181; (50 µM) 0.099.
With “LARS_Q9P2J5_1093_QGDNCDSIIR (UniProt Q9P2J5)”, the “probe-labelled cysteine peptide fold change” value (10 µM) is -0.104 and the “probe-labelled cysteine peptide fold change” value (50 µM) came out at 0.102.
On to “KLC1_Q07866_236_YEVAVPLCK (UniProt Q07866)”, for which the “probe-labelled cysteine peptide fold change” value was 0.0617 (10 µM) and -0.0397 (50 µM).
Turning to KLC1_Q07866_559_ASFCGK (UniProt Q07866), the “probe-labelled cysteine peptide fold change” value runs as follows: (10 µM) -0.226; (50 µM) -0.512.
In the case of “KLHDC4_Q8TBB5_120_CAHQAVVVPQGGGQLWVFGGEFASPNGEQFYHYK (UniProt Q8TBB5)”, the “probe-labelled cysteine peptide fold change” value was -0.0523 (10 µM) and 0.0256 (50 µM).
For “LDLR_P01130_377_CQCEEGFQLDPHTK (UniProt P01130)”, the “probe-labelled cysteine peptide fold change” value is, setting by setting: (10 µM) 0.141; (50 µM) 0.118.
As for “KPTN_Q9Y664_221_RLSALGCQSGYVR (UniProt Q9Y664)”, the “probe-labelled cysteine peptide fold change” value is -0.0575 (10 µM) and 0.21 (50 µM).
As to “LARS_Q9P2J5_573_NFEATLGWLQEHACSR (UniProt Q9P2J5)”, the “probe-labelled cysteine peptide fold change” value is -0.0255 (10 µM) and 0.121 (50 µM).
For “LCP1_P13796_42_AACLPLPGYR (UniProt P13796)”, the “probe-labelled cysteine peptide fold change” value is, setting by setting: (10 µM) -0.387; (50 µM) 0.00707.
On to “KLHL6_Q8WZ60_539_ALYAYSPLEDSWCLVTQLSHER (UniProt Q8WZ60)”, for which the “probe-labelled cysteine peptide fold change” value by setting is: (10 µM) 0.201; (50 µM) 0.388.
For “LANCL1_O43813_108_SITFLCGDAGPLAVAAVLYHK (UniProt O43813)”, in that order: -0.0705 and 0.01.
“L3HYPDH_Q96EM0_139_VNIHCPCGLVTAFVACEDGR (UniProt Q96EM0)”: the “probe-labelled cysteine peptide fold change” value is -0.189 (10 µM) and -0.312 (50 µM).
As for “KPNA4_O00629_122_SGILPILVHCLER (UniProt O00629)”, the “probe-labelled cysteine peptide fold change” value by setting is: (10 µM) 0.21; (50 µM) 0.372.
On the same counts, the results for “LARS2_Q15031_578_FFSHFCHDQK (UniProt Q15031)” are 0.289 and 0.305.
Regarding “KLHL7_Q8IXQ5_378_DSLAACAAEGK (UniProt Q8IXQ5)”, the “probe-labelled cysteine peptide fold change” value (10 µM) was -0.156 and the “probe-labelled cysteine peptide fold change” value (50 µM) is -0.0752.
Regarding “KIF4A_O95239_269_GLLCLGNVISALGDDK (UniProt O95239)”, the “probe-labelled cysteine peptide fold change” value reads like this: (10 µM) 0.287; (50 µM) 0.214.
For “LCP1_P13796_206_KLTPFTIQENLNLALNSASAIGCHVVNIGAEDLK (UniProt P13796)”, the “probe-labelled cysteine peptide fold change” value is, setting by setting: (10 µM) -0.293; (50 µM) -0.296.
For the target “KMT2C_Q8NEZ4_4403_CCFCHEEGDGLTDGPAR (UniProt Q8NEZ4)”, the “probe-labelled cysteine peptide fold change” value (10 µM) is -0.034 and the “probe-labelled cysteine peptide fold change” value (50 µM) stood at 0.0495.
On the same counts, the results for “LANCL1_O43813_363_FAEWCLEYGEHGCR (UniProt O43813)” are -0.177 and 0.272.
For the target “KPNB1_Q14974_392_YRDAAVMAFGCILEGPEPSQLK (UniProt Q14974)”, the “probe-labelled cysteine peptide fold change” value was -0.0348 (10 µM) and 0.00782 (50 µM).
On the same counts, the results for “KMT2C_Q8NEZ4_638_HICGEDQIEDK (UniProt Q8NEZ4)” are 0.254 and 0.67.
“L3MBTL2_Q969R5_368_LLYEDGDSDDDFWCHMWSPLIHPVGWSR (UniProt Q969R5)”: the “probe-labelled cysteine peptide fold change” value reads like this: (10 µM) 0.342; (50 µM) 0.38.
For “LACTB2_Q53H82_21_VLGCNPGPMTLQGTNTYLVGTGPR (UniProt Q53H82)”, in that order: -0.09 and -0.141.
As for “LARS_Q9P2J5_936_QPLQKPSHCTIYVAK (UniProt Q9P2J5)”, the “probe-labelled cysteine peptide fold change” value reads like this: (10 µM) -0.0296; (50 µM) -0.926.
Take “KLHL26_Q53HC5_480_ALHCYDPVADQWEFK (UniProt Q53HC5)”: the “probe-labelled cysteine peptide fold change” value is -0.144 (10 µM) and -0.21 (50 µM).
As for “KIF4A_O95239_443_QHAACK (UniProt O95239)”, the “probe-labelled cysteine peptide fold change” value (10 µM) is -0.0955 and the “probe-labelled cysteine peptide fold change” value (50 µM) is -0.0284.
For “LARP1B_Q659C4_102_CQPEANKPTHNNR, A0A3B3ISF0+Q659C4”, in that order: -0.115 and -0.199.
For “L1RE1_Q9UN81_111_CDQLEER (UniProt Q9UN81)”, in that order: 0.0418 and 0.128.
Consider “KPNB1_Q14974_158_ESTLEAIGYICQDIDPEQLQDK (UniProt Q14974)”, for which the “probe-labelled cysteine peptide fold change” value by setting is: (10 µM) 0.247; (50 µM) 0.121.
As for “LCOR_Q96JN0-3_531_ASCSALASEAVFTPK (UniProt Q96JN0)”, the “probe-labelled cysteine peptide fold change” value is -0.217 (10 µM) and -0.443 (50 µM).
“KLHL15_Q96M94_588_LDGLQVCNLHFPDYVLDEVRR (UniProt Q96M94)”: the “probe-labelled cysteine peptide fold change” value by setting is: (10 µM) 0.111; (50 µM) -0.0682.
Regarding “KITLG_P21583_114_LVNIVDDLVECVK (UniProt P21583)”, the “probe-labelled cysteine peptide fold change” value by setting is: (10 µM) 0.152; (50 µM) -0.209.
For “KNL1_Q8NG31_253_CSAFPDVPDK (UniProt Q8NG31)”, in that order: -0.0817 and -0.952.
For “LEMD2_Q8NC56_261_KTDEFCQAK (UniProt Q8NC56)”, in that order: -0.103 and 0.03.
For “LAIR1_Q6GTX8_101_CIYYKPPK (UniProt Q6GTX8)”, in that order: -0.066 and -0.0579.
Consider “LCMT2_O60294_396_DCDSEWK (UniProt O60294)”, for which the “probe-labelled cysteine peptide fold change” value by setting is: (10 µM) -0.0402; (50 µM) 0.111.
In the case of “KPNB1_Q14974_667_NYAEYQVCLAAVGLVGDLCR (UniProt Q14974)”, the “probe-labelled cysteine peptide fold change” value is, setting by setting: (10 µM) 0.365; (50 µM) -0.0434.
On to “LAMTOR5_O43504_23+33_NPSIVGVLCTDSQGLNLGCR (UniProt O43504)”, for which the “probe-labelled cysteine peptide fold change” value is, setting by setting: (10 µM) 0.414; (50 µM) 0.264.
With “KIF2C_Q99661_287_CLLLVHEPK (UniProt Q99661)”, the “probe-labelled cysteine peptide fold change” value (10 µM) was determined as 0.181 and the “probe-labelled cysteine peptide fold change” value (50 µM) is -0.0818.
“KLC4_Q9NSK0_489_LEAAETLEECALR (UniProt Q9NSK0)”: the “probe-labelled cysteine peptide fold change” value reads like this: (10 µM) -0.0912; (50 µM) 0.046.
On the same counts, the results for “KLHL26_Q53HC5_383_SGEGAVDACYR (UniProt Q53HC5)” are 0.0982 and 0.0933.

For the origin of these results see the supplement of paper PMC12067093, “Discovery and optimisation of a covalent ligand for TRIM25 and its application to targeted protein ubiquitination” (Chemical Science, 2025).
